From PMC11053110
Positions count from the first letter of the chain named. No constants are given. Whether binding was seen depends on the method and setting. For some of these results: In cells and extracts the contact can be indirect. Some results given as binding are weak or reduced against the parent protein; the word gives no strength. Blank lines part the entries; values can stand above or below the binder they belong to.

How the values were obtained:
[1] = biological target: T1, Irf3 (wild type, mouse, endogenous) (mouse (endogenous in BMDCs)), P70671; assay: native gel or EMSA; settings: remark: other sources report otherwise
T1 chain: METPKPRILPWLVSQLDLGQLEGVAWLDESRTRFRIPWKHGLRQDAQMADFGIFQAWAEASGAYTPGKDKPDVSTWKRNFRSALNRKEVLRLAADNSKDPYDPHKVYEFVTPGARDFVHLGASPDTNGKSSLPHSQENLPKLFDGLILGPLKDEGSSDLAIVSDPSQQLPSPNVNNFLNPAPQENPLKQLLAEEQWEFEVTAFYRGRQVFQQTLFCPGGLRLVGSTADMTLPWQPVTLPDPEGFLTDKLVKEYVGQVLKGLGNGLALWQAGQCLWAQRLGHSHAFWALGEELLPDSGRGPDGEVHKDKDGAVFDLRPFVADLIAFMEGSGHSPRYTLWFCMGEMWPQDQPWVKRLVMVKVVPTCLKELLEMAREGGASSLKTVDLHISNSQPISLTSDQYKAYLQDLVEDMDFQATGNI

[2] = biological target: Irf3_P10A (mouse, knock-in) (mouse) (UniProt P70671); assay: native gel or EMSA
[3] = biological target: T2, ectopic P10A IRF3 (human) (UniProt Q14653); assay: co-IP
T2 sequence: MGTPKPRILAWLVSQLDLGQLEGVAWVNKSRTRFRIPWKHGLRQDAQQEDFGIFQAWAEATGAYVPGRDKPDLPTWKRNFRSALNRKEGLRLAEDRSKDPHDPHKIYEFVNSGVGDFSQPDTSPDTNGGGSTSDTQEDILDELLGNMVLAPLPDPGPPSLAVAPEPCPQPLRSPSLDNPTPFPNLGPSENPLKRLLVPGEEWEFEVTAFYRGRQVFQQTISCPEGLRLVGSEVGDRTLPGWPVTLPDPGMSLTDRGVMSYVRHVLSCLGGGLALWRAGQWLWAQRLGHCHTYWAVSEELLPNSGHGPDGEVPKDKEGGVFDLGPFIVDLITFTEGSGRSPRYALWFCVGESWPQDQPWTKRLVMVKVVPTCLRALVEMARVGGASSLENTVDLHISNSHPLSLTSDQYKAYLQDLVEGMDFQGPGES

[4] = biological target: T3, ectopic WT IRF3 (Supplementary Fig. 13h) (human) (UniProt Q14653); assay: co-IP
T3 sequence: T2 sequence with A10P

binding [1]: binds
B1: Irf3 (wild type, mouse, endogenous), P70671 1-419 (protein)
chain: T1 chain

binding [2]: binds
B2: Irf3_P10A (mouse, knock-in) (protein, UniProt P70671 1-419)
chain: T1 chain with P10A

binding [3]: binds
binding [4]: binds
B3: endogenous TBK1 (enzyme, UniProt Q9UHD2 1-729)
chain: MQSTSNHLWLLSDILGQGATANVFRGRHKKTGDLFAIKVFNNISFLRPVDVQMREFEVLKKLNHKNIVKLFAIEEETTTRHKVLIMEFCPCGSLYTVLEEPSNAYGLPESEFLIVLRDVVGGMNHLRENGIVHRDIKPGNIMRVIGEDGQSVYKLTDFGAARELEDDEQFVSLYGTEEYLHPDMYERAVLRKDHQKKYGATVDLWSIGVTFYHAATGSLPFRPFEGPRRNKEVMYKIITGKPSGAISGVQKAENGPIDWSGDMPVSCSLSRGLQVLLTPVLANILEADQEKCWGFDQFFAETSDILHRMVIHVFSLQQMTAHKIYIHSYNTATIFHELVYKQTKIISSNQELIYEGRRLVLEPGRLAQHFPKTTEENPIFVVSREPLNTIGLIYEKISLPKVHPRYDLDGDASMAKAITGVVCYACRIASTLLLYQELMRKGIRWLIELIKDDYNETVHKKTEVVITLDFCIRNIEKTVKVYEKLMKINLEAAELGEISDIHTKLLRLSSSQGTIETSLQDIDSRLSPGGSLADAWAHQEGTHPKDRNVEKLQVLLNCMTEIYYQFKKDKAERRLAYNEEQIHKFDKQKLYYHATKAMTHFTDECVKKYEAFLNKSEEWIRKMLHLRKQLLSLTNQCFDIEEEVSKYQEYTNELQETLPQKMFTASSGIKHTMTPIYPSSNTLVEMTLGMKKLKEEMEGVVKELAENNHILERFGSLTMDGGLRNVDCL
